Out of some 310,000 compounds screened, about 17,000 (5.5%) were called active. Inconclusive results, whose numbers are uncertain, are shown with a selection of clear calls. Calls come from the whole dose curve; as a rule, active = well fitted inhibition curve with a large enough effect; inconclusive = small, poorly fitted or top-dose-only effect, or effect the other way; inactive = no such curve, though single readings can be large or run the other way. A potency beside an inconclusive call is a rough fit, not a confirmed value.
Biological target: Nuclear receptor ROR-gamma (Mus musculus) (UniProt P51450)
Assay: qHTS for inhibitors of ROR gamma transcriptional activity; note: nearly all actives have a fitted effect of over 60% in size
Conditions: Drosophila S2 Gal4-RORgamma UAS-luciferase reporter, 20 h; activity change, negative = inhibition: at 53.6 µM (top of the series)
In short: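 A Gal4/UAS one-hybrid system in insect cells: metallothionein-promoter Gal4–ROR gamma fusion plus Photinus luciferase reporter. Copper sulfate 700 uM final, 20 hr ambient incubation, luminescent detection after 10 min with reagent.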
% is set by controls: 0 for no effect and ±100 for the full control effect; potency is the fitted concentration of half-maximal effect.

Sequences of proteins named here, by UniProt entry; tags and fusion partners are left off. A change or cut given only in a name is not applied to a line headed by its entry.
UniProt P51450: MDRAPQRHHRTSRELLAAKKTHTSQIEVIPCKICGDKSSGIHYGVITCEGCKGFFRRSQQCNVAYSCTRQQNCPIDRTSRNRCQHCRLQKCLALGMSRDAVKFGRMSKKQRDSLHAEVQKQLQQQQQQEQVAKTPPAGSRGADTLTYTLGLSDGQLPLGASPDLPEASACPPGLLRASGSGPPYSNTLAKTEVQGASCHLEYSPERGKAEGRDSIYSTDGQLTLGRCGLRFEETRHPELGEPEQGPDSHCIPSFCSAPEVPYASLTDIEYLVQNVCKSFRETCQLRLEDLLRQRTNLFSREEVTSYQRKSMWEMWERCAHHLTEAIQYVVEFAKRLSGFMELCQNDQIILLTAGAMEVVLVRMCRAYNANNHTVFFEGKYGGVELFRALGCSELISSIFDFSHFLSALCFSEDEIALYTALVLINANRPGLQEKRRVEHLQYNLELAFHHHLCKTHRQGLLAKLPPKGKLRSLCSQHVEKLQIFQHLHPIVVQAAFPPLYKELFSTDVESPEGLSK

Potency, inconclusive:
COc1cccc(C(=O)Nc2ccc(C(=O)c3ccncc3)cc2)c1 35.5 µM [activator, single point]
Nc1ccc(-c2nc3ncccc3o2)c(Cl)c1 22.4 µM [inhibitor, single point]
C/C(=N\OCC(=O)NC12CC3CC(CC(C3)C1)C2)c1cc2ccccc2o1 31.6 µM [inhibitor, single point]
CCCC/C(O)=C1\C(=O)CC(C)(C)CC1=Nc1ccc(OC)cc1 15.8 µM [activator, partial curve]
Cc1nc2ccccc2n1Cc1n[nH]c(=S)n1-c1ccc(Cl)cc1 17.8 µM [inhibitor, single point]
CC(=O)N1CCN(CC(=O)Nc2ccccc2Sc2ccccc2)CC1 25.1 µM [activator, single point]
COc1ccc(S(=O)(=O)N2CCC(O)(c3ccc(Cl)cc3)CC2)cc1OC 11.2 µM [activator, partial curve]
COc1cc(OC)cc(C(=O)NNC(=O)c2ccc(S(=O)(=O)N(C)c3ccccc3OC)cc2)c1 0.708 µM [inhibitor, single point]
Cc1[nH]c2ccccc2c1/C=N/NC(=O)CNC(=O)c1ccc2c(c1)OCO2 17.8 µM [activator, partial curve, poor fit]
Cn1c(NCCCO)nc2c(c1=O)C1(CCCCC1)Cc1ccccc1-2 35.5 µM [inhibitor, single point]
O=C(CSCc1nc2ccccc2[nH]1)Nc1ccc(Oc2ccccc2)cc1 22.4 µM [inhibitor, single point]
Cc1sc2ncnc(Sc3nc4ccccc4s3)c2c1C 22.4 µM [inhibitor, single point]
CC(=O)Nc1ccc(S(=O)(=O)N2CCC(NC(=O)c3ccccc3)CC2)cc1 0.562 µM [inhibitor, single point]
CC[C@]1(c2ccccc2OC)C(=O)N(C(=O)OC)N1C(=O)OC 7.94 µM [inhibitor, partial curve]
CCc1c(C(=O)N/N=C/c2ccc(C)o2)csc1C 35.5 µM [inhibitor, single point]
OC(COc1ccc2c(c1)CCC2)Cn1cnc2ccccc21 (configuration not stated) 35.5 µM [inhibitor, single point]
CCOc1ccc(N=c2scc(-c3ccc(OC)cc3)n2CCO)cc1 2.82 µM [activator, full curve]
COc1ccc(OCCNC(=O)c2cccc(Oc3ccc(C(F)(F)F)cc3[N+](=O)[O-])c2)cc1 31.6 µM [activator, single point]
CCc1ccccc1NC(=O)Cc1cn(C)c2ccccc12 11.2 µM [activator, partial curve]
CCC/C=C(\CCC)C(NC(=O)c1cccs1)c1ccc(C(F)(F)F)cc1 (configuration not stated) 6.31 µM [inhibitor, single point]
CCOc1ccc(S(=O)(=O)Nc2cccc(C)c2)c2cccnc12 17.8 µM [activator, single point]
COc1cccc(/C=N/NC(=O)c2cc(-c3cccn3C)n[nH]2)c1 1 µM [activator, full curve]
CCOc1ccccc1Oc1coc2cc(OCC(=O)O)ccc2c1=O 15.8 µM [activator, single point]
CN(C)c1ccc(NC2=C([N+](=O)[O-])CS(=O)(=O)C2)cc1 5.01 µM [inhibitor, partial curve, poor fit]
CC(=O)C(/C=N/c1cc(-c2ccc(C)cc2)nn1-c1ccccc1)=C(\C)O 35.5 µM [inhibitor, single point]
CCOc1ccc(S(=O)(=O)N(C(=O)c2ccco2)c2cc3sc(=O)oc3c3ccccc23)cc1 12.6 µM [inhibitor, single point]

Potency, inactive:
COC(=O)c1cccc(C#CC(NP(=O)(c2ccccc2)c2ccccc2)c2ccccc2)c1 (configuration not stated)

Potency, active:
Oc1c(Cl)cc(Cl)c2c1NCCC2 3.16 µM
COc1ccc(NC(=S)Nc2ccc3nc(C)c(C)nc3c2)cc1 11.2 µM
c1cc(Nc2cccc3nccnc23)c2nccnc2c1 0.282 µM
O=C(NNC(=O)c1nc(Cl)ccc1Cl)c1ccc(F)cc1 11.2 µM
Cc1ccc(O)c(/C=N/NC(=O)COc2ccc3c(C)cc(=O)oc3c2)c1 2.51 µM
CC(=N\NC(=O)c1ccccc1)/C(=N/O)C(=O)Nc1ccccc1 5.01 µM
O=C(Nc1ccc([N+](=O)[O-])cc1)Nc1nc(-c2ccc(Cl)s2)cs1 3.98 µM
O=C(CCCn1c(=S)[nH]c2cc3c(cc2c1=O)OCO3)N1CCN(c2ccc(F)cc2)CC1 7.94 µM
COc1ccc(NC(=S)N2CCC(Cc3ccccc3)CC2)cc1OC 12.6 µM
CCOC(=O)c1cc(C#N)c(=S)[nH]c1C 12.6 µM

Two records picked at random from the list so far:
Potency, active:
COc1ccc(NC(=S)N2CCC(Cc3ccccc3)CC2)cc1OC 12.6 µM
Cc1ccc(O)c(/C=N/NC(=O)COc2ccc3c(C)cc(=O)oc3c2)c1 2.51 µM

Next part:

Activity change, negative = inhibition, inactive:
O=C(CNS(=O)(=O)c1ccc(Br)s1)Nc1ccc2c(c1)OCCO2 35.7%
COc1ccc2c(c1)C1NC(=S)NC(C)(O2)C1C(=O)Nc1ccc(C)cc1C (configuration not stated) -20.3%
O=C(CCSCc1ccc(Cl)cc1)NCc1cccnc1 15.8%
Cc1cc(C)c2c(N)c(S(=O)(=O)c3ccccc3)sc2n1 1.24%
CCC(=O)Nc1ccccc1-c1nnn(CC(=O)N2c3ccccc3CC2C)n1 (configuration not stated) 21.1%
Nc1nonc1-c1nc2ccccc2n1CC(=O)N/N=C/c1ccc(-c2cccc(C(=O)O)c2)o1 3.27%
Cc1ccc(NC(=O)c2ccccc2CCc2ccccc2)c(C)c1 -1.46%
CN(CCO)c1nc2c(c(=O)n(Cc3ccc(Cl)cc3)c(=O)n2C)n1C 10.4%
O=C(NCCCNC(=O)c1cnccn1)c1ccc(Cl)cc1 -4.43%
Cc1cc(=O)n2nc(N3CCCC(C(=O)NCc4ccc(Cl)cc4)C3)sc2n1 (configuration not stated) -10.5%
